{"sequences": {"note": "By UniProt entry, the sequences of proteins in these tests, tags left out.", "UniProt Q03164, whole entry, looked up": "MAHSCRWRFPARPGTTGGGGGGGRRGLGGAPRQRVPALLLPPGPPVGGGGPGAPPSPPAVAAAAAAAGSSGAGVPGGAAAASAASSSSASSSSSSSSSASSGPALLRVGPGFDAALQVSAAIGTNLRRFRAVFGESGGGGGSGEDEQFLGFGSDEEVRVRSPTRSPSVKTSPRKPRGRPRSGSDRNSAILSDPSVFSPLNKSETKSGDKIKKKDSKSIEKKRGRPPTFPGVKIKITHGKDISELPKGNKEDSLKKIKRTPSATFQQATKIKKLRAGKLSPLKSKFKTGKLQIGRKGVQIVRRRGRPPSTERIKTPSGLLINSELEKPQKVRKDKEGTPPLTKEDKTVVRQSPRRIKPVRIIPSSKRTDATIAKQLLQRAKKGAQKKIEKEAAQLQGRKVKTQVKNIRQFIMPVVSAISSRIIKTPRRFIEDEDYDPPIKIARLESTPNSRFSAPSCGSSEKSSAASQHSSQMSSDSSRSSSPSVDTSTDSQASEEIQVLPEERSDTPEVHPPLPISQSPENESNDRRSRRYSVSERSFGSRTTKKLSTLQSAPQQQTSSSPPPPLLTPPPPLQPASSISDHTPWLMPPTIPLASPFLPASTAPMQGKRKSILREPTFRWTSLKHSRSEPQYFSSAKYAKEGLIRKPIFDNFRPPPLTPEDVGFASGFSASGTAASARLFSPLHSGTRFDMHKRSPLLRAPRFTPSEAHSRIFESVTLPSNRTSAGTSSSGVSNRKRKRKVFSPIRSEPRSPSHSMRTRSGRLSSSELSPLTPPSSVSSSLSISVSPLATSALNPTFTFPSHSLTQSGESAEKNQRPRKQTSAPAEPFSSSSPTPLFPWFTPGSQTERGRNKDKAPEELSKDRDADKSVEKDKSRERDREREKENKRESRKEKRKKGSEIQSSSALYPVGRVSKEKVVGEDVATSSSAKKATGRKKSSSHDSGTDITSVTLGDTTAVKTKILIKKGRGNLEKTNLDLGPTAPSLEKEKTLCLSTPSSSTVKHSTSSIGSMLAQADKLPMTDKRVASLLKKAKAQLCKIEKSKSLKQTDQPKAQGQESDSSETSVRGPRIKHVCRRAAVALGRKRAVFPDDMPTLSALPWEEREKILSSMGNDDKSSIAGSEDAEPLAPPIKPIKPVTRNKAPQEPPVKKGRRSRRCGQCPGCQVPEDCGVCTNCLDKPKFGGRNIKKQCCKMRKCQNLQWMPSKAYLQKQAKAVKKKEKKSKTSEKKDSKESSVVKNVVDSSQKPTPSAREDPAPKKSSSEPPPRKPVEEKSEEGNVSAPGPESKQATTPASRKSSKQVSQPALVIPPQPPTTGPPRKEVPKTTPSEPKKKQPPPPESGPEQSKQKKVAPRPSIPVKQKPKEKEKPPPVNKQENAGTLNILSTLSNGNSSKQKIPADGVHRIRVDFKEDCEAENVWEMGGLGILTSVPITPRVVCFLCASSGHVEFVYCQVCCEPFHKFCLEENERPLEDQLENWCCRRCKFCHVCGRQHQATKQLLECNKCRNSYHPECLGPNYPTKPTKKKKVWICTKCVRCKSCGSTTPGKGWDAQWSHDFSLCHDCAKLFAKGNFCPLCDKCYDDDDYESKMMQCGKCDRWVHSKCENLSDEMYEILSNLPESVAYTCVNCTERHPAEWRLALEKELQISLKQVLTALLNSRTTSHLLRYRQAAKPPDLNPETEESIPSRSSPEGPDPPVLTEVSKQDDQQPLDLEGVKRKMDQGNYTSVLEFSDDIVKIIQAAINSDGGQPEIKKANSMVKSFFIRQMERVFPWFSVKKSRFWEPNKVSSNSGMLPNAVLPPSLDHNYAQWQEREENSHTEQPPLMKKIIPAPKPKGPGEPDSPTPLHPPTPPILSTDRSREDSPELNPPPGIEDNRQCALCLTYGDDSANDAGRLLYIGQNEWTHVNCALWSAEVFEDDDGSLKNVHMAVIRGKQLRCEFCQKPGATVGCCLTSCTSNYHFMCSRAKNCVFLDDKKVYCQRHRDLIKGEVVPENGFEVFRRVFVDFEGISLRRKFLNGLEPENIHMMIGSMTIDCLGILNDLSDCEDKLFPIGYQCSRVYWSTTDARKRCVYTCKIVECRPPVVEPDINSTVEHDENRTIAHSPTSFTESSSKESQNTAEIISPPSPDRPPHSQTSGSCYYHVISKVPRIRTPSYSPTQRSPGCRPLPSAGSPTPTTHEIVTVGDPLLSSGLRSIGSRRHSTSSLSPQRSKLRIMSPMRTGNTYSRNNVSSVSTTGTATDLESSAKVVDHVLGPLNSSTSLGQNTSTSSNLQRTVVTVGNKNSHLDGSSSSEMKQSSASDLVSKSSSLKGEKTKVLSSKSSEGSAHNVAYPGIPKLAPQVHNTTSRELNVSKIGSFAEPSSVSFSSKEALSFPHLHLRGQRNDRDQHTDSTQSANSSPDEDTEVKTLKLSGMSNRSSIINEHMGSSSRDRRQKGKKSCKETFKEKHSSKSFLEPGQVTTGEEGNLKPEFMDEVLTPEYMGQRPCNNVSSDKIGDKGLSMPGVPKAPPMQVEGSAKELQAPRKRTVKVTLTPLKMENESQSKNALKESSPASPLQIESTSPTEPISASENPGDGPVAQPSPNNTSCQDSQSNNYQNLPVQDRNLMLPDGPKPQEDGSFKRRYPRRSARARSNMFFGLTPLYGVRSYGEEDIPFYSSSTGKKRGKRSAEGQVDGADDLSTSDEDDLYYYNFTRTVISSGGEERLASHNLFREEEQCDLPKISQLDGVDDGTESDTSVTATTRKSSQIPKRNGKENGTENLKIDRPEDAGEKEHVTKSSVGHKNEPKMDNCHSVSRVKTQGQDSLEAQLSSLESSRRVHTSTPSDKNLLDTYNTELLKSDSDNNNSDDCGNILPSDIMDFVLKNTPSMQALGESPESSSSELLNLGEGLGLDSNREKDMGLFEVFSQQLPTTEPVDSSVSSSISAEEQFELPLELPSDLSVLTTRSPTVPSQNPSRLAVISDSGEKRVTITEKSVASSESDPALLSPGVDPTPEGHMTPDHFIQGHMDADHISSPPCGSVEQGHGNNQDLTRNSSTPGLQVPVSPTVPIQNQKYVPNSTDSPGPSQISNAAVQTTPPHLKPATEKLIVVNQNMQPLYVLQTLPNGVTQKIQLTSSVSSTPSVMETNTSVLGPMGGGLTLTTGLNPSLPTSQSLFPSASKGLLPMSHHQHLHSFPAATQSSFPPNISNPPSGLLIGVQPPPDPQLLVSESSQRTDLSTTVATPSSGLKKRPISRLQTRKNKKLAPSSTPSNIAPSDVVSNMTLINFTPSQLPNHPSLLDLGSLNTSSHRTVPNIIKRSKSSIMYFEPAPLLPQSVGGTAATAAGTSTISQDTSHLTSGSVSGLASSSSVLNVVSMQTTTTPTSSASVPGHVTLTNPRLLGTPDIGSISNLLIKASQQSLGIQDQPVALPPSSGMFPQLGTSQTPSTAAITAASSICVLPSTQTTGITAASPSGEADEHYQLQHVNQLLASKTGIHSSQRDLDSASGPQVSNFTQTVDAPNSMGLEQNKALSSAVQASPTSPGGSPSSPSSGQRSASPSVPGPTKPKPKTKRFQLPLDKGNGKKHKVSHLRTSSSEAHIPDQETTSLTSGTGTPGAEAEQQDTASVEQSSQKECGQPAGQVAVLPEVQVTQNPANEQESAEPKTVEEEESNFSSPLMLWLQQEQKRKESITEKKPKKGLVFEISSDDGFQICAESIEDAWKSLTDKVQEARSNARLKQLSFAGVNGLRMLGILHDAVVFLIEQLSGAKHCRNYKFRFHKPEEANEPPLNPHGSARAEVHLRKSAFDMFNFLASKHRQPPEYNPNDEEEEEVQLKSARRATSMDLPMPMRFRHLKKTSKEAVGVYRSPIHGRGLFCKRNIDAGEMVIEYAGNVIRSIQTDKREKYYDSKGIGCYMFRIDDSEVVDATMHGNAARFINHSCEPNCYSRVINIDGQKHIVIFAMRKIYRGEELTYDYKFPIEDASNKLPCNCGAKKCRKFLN"}, "source": "PubChem BioAssay AID2662", "about": "(National Center for Advancing Translational Sciences (NCATS), 2010)", "note": "Among all 290,000 compounds or so, about 110 (0.038%) were called active. Inconclusive means that the source gave no clear call. Such entries were picked first, then a sample of the others. The call rests on the fitted dose curve; in most records, active means well fitted inhibition curve with a large enough effect in the polarisation, with a control signal flat (not every such curve was filed as active); inconclusive means small, poorly fitted or top-dose-only effect, or effect the other way, or a change in a side signal; inactive means no such curve, though single readings can be large or run the other way; the % refers to the polarisation. Potencies beside an inconclusive call are fits to weak or partial responses and may not hold up. A note “side channel” means that the fit belongs to a control or component signal, not to the main read-out. Potency means the concentration at half of the fitted maximal effect."}
{"target": "Histone-lysine N-methyltransferase 2A (Homo sapiens) (UniProt Q03164)", "assay": "qHTS Fluorescence Polarization Assay for Inhibitors of MLL CXXC domain - DNA interaction", "details": "MLL-CXXC / FITC-HOXA9 DNA fluorescence polarization; series mostly up to 115 µM", "outline": "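Fluorescence polarization: 7 uM MLL-CXXC (stock) preincubated 5 min with compounds, then 50 nM fluorescein-HOX-A9 DNA (stock) added; 30 min ambient. Buffer 50 mM Tris-HCl pH 7.5, 50 mM NaCl, 1 mM DTT, 0.05% BSA.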"}
{"smiles": "Nc1c(S(=O)(=O)c2cccs2)c2nc3ccccc3nc2n1Cc1cccs1", "Potency": "inactive"}
{"smiles": "CC(C)N(c1ccccc1)c1ccc(NC(=O)CCl)cc1", "Potency": "inconclusive: 35.5 µM [quencher, side channel, single point]"}
{"smiles": "CCOC(=O)C1CCCN(C(=O)CSc2nc(C)cc(C)n2)C1", "note": "(stereo not drawn)", "Potency": "inconclusive: 20 µM [fluorescent, side channel, full curve]"}
{"smiles": "Cc1cccc(NC(=O)CSCc2nc3c(nnn3Cc3ccc(F)cc3)c(=O)[nH]2)c1C", "Potency": "inactive"}
{"smiles": "CC(C)[C@H](NS(=O)(=O)c1ccccc1)C(=O)OCC(=O)N1N=C(c2ccc(Cl)cc2)CC1c1ccco1", "note": "(stereo partly drawn)", "Potency": "inactive"}
{"smiles": "CCOc1ccc2c(c1)-c1c(ssc1=S)C(C)(C)N2C(=O)CSC1=NCCS1", "Potency": "inactive"}
{"smiles": "Cn1ccnc1SCC(=O)n1c2c(c3ccccc31)CCCC2", "Potency": "inactive"}
{"smiles": "O=C(Nc1ccc2nc(-c3ccc4nc[nH]c4c3)[nH]c2c1)c1cccs1", "Potency": "inconclusive: 35.5 µM [quencher, side channel, single point]"}
{"smiles": "CN(C)c1ccc(/C=C/c2ccc3ccccc3[n+]2C)cc1", "Potency": "inconclusive: 31.6 µM [quencher, partial curve]"}
{"smiles": "O=C1c2cccc3c(N4CCCCC4)ccc(c23)C(=O)N1c1ccc(O)cc1", "Potency": "inconclusive: 10 µM [fluorescent, side channel, full curve]"}
{"smiles": "Cc1ccc2nc(-c3cccnc3)cc(C(=O)N3CCN(c4ccc([N+](=O)[O-])cc4)CC3)c2c1", "Potency": "inconclusive: 1.41 µM [quencher, side channel, full curve]"}
{"smiles": "COc1ccc(NC(=O)CC2C(=O)N(c3ccc(Cl)cc3)C(=S)N2CCc2ccccn2)cc1", "note": "(stereo not drawn)", "Potency": "inactive"}
{"smiles": "COc1ccc(N2CCN(C(=O)CN(c3cccc(OC)c3)S(=O)(=O)c3ccccc3)CC2)cc1", "Potency": "inconclusive: 63.1 µM [quencher, side channel, single point]"}
{"smiles": "CCN(CC)CCN1C(=O)/C(=C\\c2ccc(Cl)c([N+](=O)[O-])c2)SC1=Nc1ccc(OC)cc1", "Potency": "inconclusive: 35.5 µM [quencher, side channel, partial curve]"}
{"smiles": "CC(C)CCC(C)NC(=O)Cc1ccc(S(=O)(=O)N2CCOCC2)s1", "note": "(stereo not drawn)", "Potency": "inconclusive: 14.1 µM [fluorescent, side channel, single point]"}
{"smiles": "CC(C)(O)c1ccccc1CC[C@H](SCC1(CC(=O)O)CC1)c1cccc(/C=C/c2ccc3ccc(Cl)cc3n2)c1", "Potency": "inactive"}
{"smiles": "COc1cc(/C=C/c2ccc3cccc(OC)c3n2)c(O)c([N+](=O)[O-])c1", "Potency": "inconclusive: 39.8 µM [inhibitor, single point]"}
{"smiles": "CC(=O)c1cc(O)c2ccccc2c1O", "Potency": "inconclusive: 70.8 µM [fluorescent, side channel, single point]"}
{"smiles": "CC/C(=C/c1sc2ccc(C)cc2[n+]1CCO)SC", "Potency": "inactive"}
{"smiles": "CC1CCN(C(=O)COC(=O)c2ccccc2NC(=O)c2ccco2)CC1", "Potency": "inconclusive: 35.5 µM [inhibitor, single point]"}
{"smiles": "Cc1ccc(S(=O)(=O)N2CCN(C(=O)C3CCCO3)CC2)cc1C", "note": "(stereo not drawn)", "Potency": "inconclusive: 15.8 µM [fluorescent, side channel, single point]"}
{"smiles": "COc1ccccc1C(=O)NN1C(=O)/C(=C/c2cccn2C)SC1=S", "Potency": "inconclusive: 35.5 µM [inhibitor, partial curve]"}
{"smiles": "CN1/C(=C\\C=N\\NC(=O)c2cccnc2)C(C)(C)c2ccccc21", "Potency": "inconclusive: 44.7 µM [fluorescent, side channel, partial curve]"}
{"smiles": "CCOC(=O)CNC(=O)c1cc2c(=O)[nH]c3ccc(C)cc3c2s1", "Potency": "inconclusive: 1.41 µM [fluorescent, side channel, full curve, poor fit]"}
{"smiles": "Cc1ccc(CNC(=O)C2CCCN(S(=O)(=O)c3ccc(-n4cnnn4)cc3)C2)cc1", "note": "(stereo not drawn)", "Potency": "inconclusive: 31.6 µM [fluorescent, side channel, partial curve]"}
{"smiles": "CCN(CC)CCN(C(=O)CCS(=O)(=O)c1ccccc1)c1nc2c(C)cc(C)cc2s1", "Potency": "inconclusive: 10 µM [fluorescent, side channel, single point]"}
{"smiles": "CCNC(=S)N1CCN(CC(=O)Nc2ccc(Br)cc2)CC1", "Potency": "inconclusive: 31.6 µM [quencher, side channel, single point]"}
{"smiles": "CCC1CCCCN1C(=O)/C=C/c1ccc2c(c1)OCO2", "note": "(stereo not drawn)", "Potency": "inconclusive: 17.8 µM [inhibitor, partial curve]"}
{"smiles": "COC(=O)C1CSc2[nH]c(=O)sc2C1c1ccc(O)c(OC)c1", "note": "(stereo not drawn)", "Potency": "inactive"}
{"smiles": "O=C(CSc1c(F)c(F)cc(F)c1F)Nc1ccc(C2SCCS2)cc1", "Potency": "inconclusive: 70.8 µM [fluorescent, side channel, single point]"}
{"smiles": "Clc1ccc(CNc2ccccc2NCc2ccc(Cl)nc2)cn1", "Potency": "inactive"}
{"smiles": "Cc1cc(C)cc(C(=O)NCC(=O)OC(C)C(=O)N(C)c2ccccc2)c1", "note": "(stereo not drawn)", "Potency": "inconclusive: 6.31 µM [quencher, side channel, full curve]"}
{"smiles": "O=C(Nc1ccc(N2CCCC2)cc1)c1cc2ccccc2o1", "Potency": "inconclusive: 39.8 µM [quencher, side channel, single point]"}
{"smiles": "COc1ccccc1N(CC(=O)NC1CCCC1)C(=O)c1csnn1", "Potency": "inactive"}
{"smiles": "COc1ccc2ccccc2c1C1NC(=O)NC(C)=C1[N+](=O)[O-]", "note": "(stereo not drawn)", "Potency": "inconclusive: 63.1 µM [fluorescent, side channel, single point]"}
{"smiles": "O=S(=O)(CCC1CCCCN1)c1ccccc1", "note": "(stereo not drawn)", "Potency": "inconclusive: 2.82 µM [fluorescent, side channel, full curve]"}
{"smiles": "CCN(CC(=O)NCCc1ccc(S(N)(=O)=O)cc1)Cc1ccccc1", "Potency": "inactive"}
{"smiles": "O=C(O)/C=C/C(=O)Nc1ccc(OC(F)(F)F)cc1", "Potency": "inconclusive: 0.891 µM [quencher, side channel, full curve, poor fit]"}
{"smiles": "CCN(CC)c1cc(Cl)nc(N)n1", "Potency": "inconclusive: 15.8 µM [inhibitor, single point]"}
{"smiles": "CCCN1C(=O)/C(=C/c2nc3ccccc3c(=O)[nH]2)c2ccccc21", "Potency": "inactive"}
{"smiles": "CCCC(=O)Nc1c(-c2ccc(OC)cc2)c(=O)c2ccccc2n1C", "Potency": "inconclusive: 70.8 µM [fluorescent, side channel, single point]"}
{"smiles": "Cc1cccc(N2CCN(CCCNC(=O)C3CCCN(c4ncnc5c4nc4n5CCCCC4)C3)CC2C)c1", "note": "(stereo not drawn)", "Potency": "inconclusive: 8.91 µM [quencher, side channel, full curve]"}
{"smiles": "NC(=O)C1CCCN(C(=O)CCCNC(=O)c2ccc(Cl)cc2)C1", "note": "(stereo not drawn)", "Potency": "inconclusive: 44.7 µM [fluorescent, side channel, single point]"}
{"smiles": "CCc1ccc(N/C(N)=N/c2nc(CSc3ccccn3)cc(=O)[nH]2)cc1", "Potency": "inconclusive: 5.01 µM [fluorescent, side channel, full curve]"}
{"smiles": "Brc1ccc(C=Nc2ccc(Nc3ccccc3)cc2)s1", "Potency": "inactive"}
{"smiles": "O=C(Nc1cccc(Cl)c1)c1ccccc1NC(=O)C1CCCCC1C(=O)O", "note": "(stereo not drawn)", "Potency": "inconclusive: 31.6 µM [inhibitor, single point]"}
{"smiles": "N#Cc1ccc(NC(=O)Cn2c3[n+](c4ccc(C(F)(F)F)cc42)CCCCC3)cc1", "Potency": "inactive"}
{"smiles": "CCNc1nc(NC(C)C)nc(Oc2ccc(/C=N/O)cc2)n1", "Potency": "inconclusive: 70.8 µM [quencher, side channel, single point]"}
{"smiles": "CC[N+](C)(CC)CCOC(=O)C1c2ccccc2Oc2ccccc21", "Potency": "inconclusive: 56.2 µM [quencher, side channel, partial curve, poor fit]"}
{"smiles": "COc1ccc(CCN2CC(C(=O)NCc3cccc4[nH]ccc34)CCC2=O)cc1", "note": "(stereo not drawn)", "Potency": "inconclusive: 10 µM [fluorescent, side channel, single point]"}
{"smiles": "COc1ccc(C(CNC(=O)c2ccc(NS(=O)(=O)c3cccc([N+](=O)[O-])c3)cc2)N2CCOCC2)cc1", "note": "(stereo not drawn)", "Potency": "inconclusive: 12.6 µM [fluorescent, side channel, single point]"}
{"smiles": "O=C1/C(=C\\c2c(NCCOCCO)nc3ccccn3c2=O)SC(=S)N1Cc1ccco1", "Potency": "inconclusive: 35.5 µM [fluorescent, side channel, partial curve]"}
{"smiles": "Cc1ccc(CNC(=O)C2CCC(=O)N(CCc3ccc(Cl)cc3)C2)cc1", "note": "(stereo not drawn)", "Potency": "inconclusive: 11.2 µM [fluorescent, side channel, partial curve]"}
{"smiles": "COc1ccc(S(=O)(=O)Nc2ccccc2C(=O)Nc2nc(-c3ccc(F)cc3)cs2)cc1OC", "Potency": "inactive"}
{"smiles": "COc1ccc(NC(=O)C(=O)NCCN2CCN(C(=O)c3ccc(C)cc3)CC2)cc1", "Potency": "inactive"}
{"smiles": "O=C1c2ccccc2C(=O)C1c1ccc(F)cc1", "Potency": "inactive"}
{"smiles": "Cc1cc2c(N)cccc2nn1", "Potency": "inactive"}
{"smiles": "Cn1c(CNC2CCCCC2)nc2ccccc21", "Potency": "inconclusive: 89.1 µM [fluorescent, side channel, single point]"}
{"smiles": "COc1cc(/C=N/NS(=O)(=O)c2ccc(C)c([N+](=O)[O-])c2)cc([N+](=O)[O-])c1O", "Potency": "inactive"}
{"smiles": "CCOc1ccc(C(=O)Nc2cccc(NC(=O)c3cccs3)c2)cc1[N+](=O)[O-]", "Potency": "inconclusive: 56.2 µM [fluorescent, side channel, single point]"}
{"smiles": "N#C/C(=C/c1ccc(-c2ccccc2)o1)c1nc(-c2cccs2)cs1", "Potency": "inconclusive: 3.55 µM [fluorescent, side channel, partial curve]"}
{"smiles": "COc1ccc(CCNC(=O)COc2ccc(-c3ccc(C#N)cc3)cc2)cc1", "Potency": "inactive"}
{"smiles": "Cc1cc(S(=O)(=O)n2cnc3cc([N+](=O)[O-])ccc32)ccc1Cl", "Potency": "inconclusive: 56.2 µM [fluorescent, side channel, partial curve]"}
